Measurements reported in PMC7610337.
These are yes or no findings as the source states them, for the method shown. Binding seen in cells or lysates may run through a third protein. Some binding calls cover weakened binding; strength is not graded here.

By UniProt entry, the sequences of proteins in these tests, tags left out. Residues count along the entry.
UniProt Q60751, residues 31-1373: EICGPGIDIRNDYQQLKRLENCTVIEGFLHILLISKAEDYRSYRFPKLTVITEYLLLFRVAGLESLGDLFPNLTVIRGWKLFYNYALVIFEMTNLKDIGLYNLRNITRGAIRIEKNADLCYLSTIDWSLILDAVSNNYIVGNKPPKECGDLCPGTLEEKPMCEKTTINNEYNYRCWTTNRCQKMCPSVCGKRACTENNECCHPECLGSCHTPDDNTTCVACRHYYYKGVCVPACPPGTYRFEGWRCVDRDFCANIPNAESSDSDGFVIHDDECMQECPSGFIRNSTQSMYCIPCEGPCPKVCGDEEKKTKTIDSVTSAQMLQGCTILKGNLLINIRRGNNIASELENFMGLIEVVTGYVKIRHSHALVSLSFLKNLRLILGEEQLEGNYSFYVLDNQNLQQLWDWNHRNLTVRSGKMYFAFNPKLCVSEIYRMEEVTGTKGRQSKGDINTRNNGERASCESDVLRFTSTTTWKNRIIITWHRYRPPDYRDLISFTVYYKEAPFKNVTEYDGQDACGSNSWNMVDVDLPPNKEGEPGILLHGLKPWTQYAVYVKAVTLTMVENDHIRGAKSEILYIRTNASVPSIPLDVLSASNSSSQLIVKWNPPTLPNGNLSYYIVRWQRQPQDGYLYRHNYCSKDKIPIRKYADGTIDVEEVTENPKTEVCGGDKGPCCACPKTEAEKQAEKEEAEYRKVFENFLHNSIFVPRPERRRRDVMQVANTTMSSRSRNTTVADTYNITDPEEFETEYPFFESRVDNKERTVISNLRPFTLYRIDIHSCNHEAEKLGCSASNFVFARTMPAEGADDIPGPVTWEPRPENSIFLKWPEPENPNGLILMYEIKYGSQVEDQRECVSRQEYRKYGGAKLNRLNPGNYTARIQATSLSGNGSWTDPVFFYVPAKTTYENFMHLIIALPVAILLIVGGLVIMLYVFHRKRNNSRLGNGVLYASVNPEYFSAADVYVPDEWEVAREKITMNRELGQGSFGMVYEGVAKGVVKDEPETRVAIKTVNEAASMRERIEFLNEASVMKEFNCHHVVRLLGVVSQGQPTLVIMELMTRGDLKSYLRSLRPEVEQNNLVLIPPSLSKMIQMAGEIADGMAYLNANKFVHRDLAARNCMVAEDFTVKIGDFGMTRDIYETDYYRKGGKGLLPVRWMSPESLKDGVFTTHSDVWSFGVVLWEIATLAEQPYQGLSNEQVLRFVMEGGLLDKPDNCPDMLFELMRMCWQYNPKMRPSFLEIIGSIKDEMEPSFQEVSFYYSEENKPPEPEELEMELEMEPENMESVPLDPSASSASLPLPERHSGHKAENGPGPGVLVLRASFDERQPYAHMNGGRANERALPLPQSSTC
UniProt P08069, residues 31-1367: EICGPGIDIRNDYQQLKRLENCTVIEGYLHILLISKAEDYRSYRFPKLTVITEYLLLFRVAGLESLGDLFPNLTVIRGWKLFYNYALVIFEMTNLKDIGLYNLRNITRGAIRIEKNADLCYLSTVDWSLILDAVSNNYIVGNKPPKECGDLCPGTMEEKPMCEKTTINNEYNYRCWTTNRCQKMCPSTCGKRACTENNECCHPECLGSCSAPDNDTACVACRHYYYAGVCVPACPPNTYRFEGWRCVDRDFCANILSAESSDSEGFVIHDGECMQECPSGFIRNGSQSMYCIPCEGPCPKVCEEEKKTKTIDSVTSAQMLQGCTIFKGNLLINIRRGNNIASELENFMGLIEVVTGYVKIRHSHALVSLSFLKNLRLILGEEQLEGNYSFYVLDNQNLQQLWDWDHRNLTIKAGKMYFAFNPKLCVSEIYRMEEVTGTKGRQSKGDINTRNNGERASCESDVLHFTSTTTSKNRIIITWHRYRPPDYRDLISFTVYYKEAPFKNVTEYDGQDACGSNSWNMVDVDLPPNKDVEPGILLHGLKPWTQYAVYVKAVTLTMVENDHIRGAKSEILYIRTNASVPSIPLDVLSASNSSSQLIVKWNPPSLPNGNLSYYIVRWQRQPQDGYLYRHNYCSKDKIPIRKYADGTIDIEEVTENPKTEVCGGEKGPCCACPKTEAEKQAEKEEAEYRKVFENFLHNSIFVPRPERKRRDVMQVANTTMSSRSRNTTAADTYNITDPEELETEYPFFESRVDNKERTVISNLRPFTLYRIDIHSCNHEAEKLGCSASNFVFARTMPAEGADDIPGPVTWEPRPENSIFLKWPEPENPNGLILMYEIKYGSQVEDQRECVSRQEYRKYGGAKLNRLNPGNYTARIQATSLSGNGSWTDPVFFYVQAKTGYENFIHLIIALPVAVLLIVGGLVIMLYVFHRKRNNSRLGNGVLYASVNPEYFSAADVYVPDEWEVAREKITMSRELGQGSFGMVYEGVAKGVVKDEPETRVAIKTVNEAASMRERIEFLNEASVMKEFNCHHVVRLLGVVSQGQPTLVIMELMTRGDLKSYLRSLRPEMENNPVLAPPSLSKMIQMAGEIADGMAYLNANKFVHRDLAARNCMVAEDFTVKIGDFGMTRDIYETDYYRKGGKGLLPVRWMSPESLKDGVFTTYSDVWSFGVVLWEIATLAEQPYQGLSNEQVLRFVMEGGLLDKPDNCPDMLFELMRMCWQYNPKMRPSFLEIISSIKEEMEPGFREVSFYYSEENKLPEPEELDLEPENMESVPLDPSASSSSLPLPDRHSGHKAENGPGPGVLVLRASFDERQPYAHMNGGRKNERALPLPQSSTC
UniProt P26618, residues 25-1089: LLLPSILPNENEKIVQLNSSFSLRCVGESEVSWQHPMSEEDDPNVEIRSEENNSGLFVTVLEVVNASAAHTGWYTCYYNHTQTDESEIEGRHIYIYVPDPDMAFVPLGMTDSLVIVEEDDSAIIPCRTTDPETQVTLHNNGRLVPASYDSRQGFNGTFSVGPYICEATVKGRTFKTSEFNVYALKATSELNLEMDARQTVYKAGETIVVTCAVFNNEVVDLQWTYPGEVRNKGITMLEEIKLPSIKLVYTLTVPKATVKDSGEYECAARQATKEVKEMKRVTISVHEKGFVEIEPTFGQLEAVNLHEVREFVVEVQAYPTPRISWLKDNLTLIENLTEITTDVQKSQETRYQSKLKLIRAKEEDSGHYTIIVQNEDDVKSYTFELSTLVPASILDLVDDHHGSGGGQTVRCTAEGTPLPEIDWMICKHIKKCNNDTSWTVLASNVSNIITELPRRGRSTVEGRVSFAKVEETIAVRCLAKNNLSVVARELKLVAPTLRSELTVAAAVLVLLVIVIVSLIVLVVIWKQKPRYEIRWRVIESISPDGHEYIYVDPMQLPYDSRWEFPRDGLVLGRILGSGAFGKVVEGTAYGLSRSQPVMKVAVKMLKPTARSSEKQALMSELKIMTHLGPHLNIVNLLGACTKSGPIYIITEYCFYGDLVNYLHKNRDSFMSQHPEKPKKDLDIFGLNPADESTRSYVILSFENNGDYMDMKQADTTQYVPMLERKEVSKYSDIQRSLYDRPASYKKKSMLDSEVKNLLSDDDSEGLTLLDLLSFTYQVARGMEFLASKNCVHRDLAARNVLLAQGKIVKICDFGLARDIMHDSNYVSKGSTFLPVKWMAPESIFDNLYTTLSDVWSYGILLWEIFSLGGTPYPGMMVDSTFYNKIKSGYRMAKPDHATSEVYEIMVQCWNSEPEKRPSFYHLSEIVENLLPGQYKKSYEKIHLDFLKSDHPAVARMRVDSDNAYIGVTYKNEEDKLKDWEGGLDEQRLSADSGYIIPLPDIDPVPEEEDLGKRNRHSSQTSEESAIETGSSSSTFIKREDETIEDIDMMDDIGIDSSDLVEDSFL
UniProt P16234, residues 24-1089: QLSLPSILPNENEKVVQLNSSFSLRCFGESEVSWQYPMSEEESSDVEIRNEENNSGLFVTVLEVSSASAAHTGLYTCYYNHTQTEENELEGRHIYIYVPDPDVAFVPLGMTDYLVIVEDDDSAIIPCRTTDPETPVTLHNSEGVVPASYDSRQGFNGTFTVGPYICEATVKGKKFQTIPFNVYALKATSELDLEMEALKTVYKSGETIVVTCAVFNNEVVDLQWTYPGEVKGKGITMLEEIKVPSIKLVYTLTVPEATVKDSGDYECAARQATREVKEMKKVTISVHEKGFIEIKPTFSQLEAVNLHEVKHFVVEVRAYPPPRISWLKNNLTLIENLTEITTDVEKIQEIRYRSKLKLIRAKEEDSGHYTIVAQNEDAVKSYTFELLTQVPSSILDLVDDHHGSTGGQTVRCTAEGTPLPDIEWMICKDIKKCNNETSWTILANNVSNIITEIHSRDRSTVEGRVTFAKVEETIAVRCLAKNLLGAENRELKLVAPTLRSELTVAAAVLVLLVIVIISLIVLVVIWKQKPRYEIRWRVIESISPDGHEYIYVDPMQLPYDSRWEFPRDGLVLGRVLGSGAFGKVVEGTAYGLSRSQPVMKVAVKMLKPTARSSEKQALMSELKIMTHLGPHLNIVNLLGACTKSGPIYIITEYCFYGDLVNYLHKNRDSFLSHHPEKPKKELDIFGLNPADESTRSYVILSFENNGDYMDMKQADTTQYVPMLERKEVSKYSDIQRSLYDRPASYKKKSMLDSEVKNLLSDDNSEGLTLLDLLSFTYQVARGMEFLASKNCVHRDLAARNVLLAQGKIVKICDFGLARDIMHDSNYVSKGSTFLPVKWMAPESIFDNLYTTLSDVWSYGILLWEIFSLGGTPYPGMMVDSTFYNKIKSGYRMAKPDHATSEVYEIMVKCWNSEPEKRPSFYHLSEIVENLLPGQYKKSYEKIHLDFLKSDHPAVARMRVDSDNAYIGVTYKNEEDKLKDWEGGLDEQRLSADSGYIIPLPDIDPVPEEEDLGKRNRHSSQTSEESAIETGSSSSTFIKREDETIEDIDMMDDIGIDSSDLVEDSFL

Columns and labels:
[1] = target: mouse IGF1R, exogenously expressed (mouse) (UniProt Q60751); experiment: co-IP; exogenous PDGFRα and IGF1R co-expressed in HEK293(FT) cells; lysis in Beyotime cell lysis buffer for Western and IP with protease and phosphatase inhibitors; lysate precleared with mouse IgG and Protein A/G PLUS-Agarose; which receptor was precipitated is not given
[2] = target: human IGF1R, exogenously expressed (human) (UniProt P08069); experiment: as above

Substance	binding [1]	binding [2]
mouse PDGFRα, exogenously expressed (from UniProt P26618 25-1089) (receptor)	binds	
human PDGFRα, exogenously expressed (from UniProt P16234 24-1089) (receptor)		binds
